# Data taken from PubChem BioAssay AID624291 (National Center for Advancing Translational Sciences (NCATS), 2012).
# In all, about 350,000 compounds went through this assay and about 220 (0.063%) were called active. This list was built around the results that the source calls inconclusive (neither active nor inactive); the mix of calls is not that of the screen. Calls follow the shape of the dose curve; as a rule, active = well fitted activation curve with a large enough effect; inconclusive = small, poorly fitted or top-dose-only effect; inactive = no such curve, though single readings can be large or run the other way. Potencies beside an inconclusive call are fits to weak or partial responses and may not hold up.
# Test: qHTS for Activators of Integrin-Mediated Alleviation for Muscular Dystrophy; also: nearly all actives have a fitted effect of over 60% in size;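 as to activation: 100% = response of the positive control SU9516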
# Conditions: alpha7betagal myoblasts, beta-gal FDG fluorescence, 48 h; activation: at 38.3 µM (top of the series)
# Method in brief: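 Alpha7betagal+/- myoblasts (passage 13) were plated 16-24 hr, then exposed to compounds (1:260 dilution of DMSO stock) for 48 hours at 37C. After MPER lysis, β-galactosidase reporter activity was read as FDG fluorescence (ex 480/em 540) after 30 minutes.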
# Potency is read from the fitted curve at half-maximal effect.
Compound,activation,Potency
COc1ccc(C2C(C#N)=C(N)Oc3cc4c(cc32)OCO4)cc1 (stereo not drawn),inactive: 14.7%,–
CNC(=O)c1nc(C)n(-c2ccc([N+](=O)[O-])cc2)n1,–,"inconclusive: 2.24 µM [activator, partial curve, poor fit]"
C/C(=C/C#N)Nc1ccc(C)cc1,–,"inconclusive: 14.1 µM [activator, partial curve, poor fit]"
CN1CCN(c2nnc(-c3ccccc3)c(-c3ccccc3)n2)CC1,inactive: 18.3%,–
Nc1ccc(Oc2ccc3c(c2)C(=O)N(CC2CCCO2)C3=O)cc1 (stereo not drawn),inactive: -19.5%,–
Cc1cc(Cl)ccc1OCC(=O)OCC(=O)Nc1ccc(Cl)cn1,inactive: 24.3%,–
CC(C)=C(NC(=O)c1ccccc1)C(=O)Nc1cccc(C)c1,–,"inconclusive: 10 µM [activator, single point]"
COc1ccc(CCC(=O)N/N=C/c2ccc3c(c2)OCO3)cc1,inactive: -31.8%,–
C[C@H](CO)N1C[C@H](C)[C@@H](CN(C)S(=O)(=O)c2ccccc2)Oc2ccc(NC(=O)Cn3cnnn3)cc2C1=O,–,"inconclusive: 2.82 µM [activator, single point]"
Cc1ccc(S(=O)(=O)NCC(c2ccco2)N2CCc3ccccc3C2)cc1 (stereo not drawn),–,"inconclusive: 1.78 µM [activator, partial curve, poor fit]"
Cc1ccc(CS(=O)(=O)Cc2ccc(C(=O)NC3CCCCCC3)o2)cc1,–,"inconclusive: 1.12 µM [activator, single point]"
CCCCCCN(C(=O)CCCN1C(=O)NC(c2ccc([N+](=O)[O-])cc2)C(C(=O)OCc2ccccc2)=C1C)C(C)C(=O)NCCCC (stereo not drawn),inactive: -15.2%,–
O=[N+]([O-])c1cc(S(=O)(=O)N2CCCC2)ccc1SCCO,–,"inconclusive: 14.1 µM [activator, single point]"
COc1ccc(C(=O)N2CCCC(c3ccccc3)=N2)cc1,–,"inconclusive: 2 µM [activator, single point]"
COc1ccc(C(=O)NCc2nnc(SCC(=O)NO)n2Cc2ccccc2)cc1,–,"inconclusive: 5.01 µM [activator, single point]"
CC1CC(C)(C)N2C(=O)C3(Nc4ccccc4S3)c3cccc1c32 (stereo not drawn),inactive: -16.5%,–
CCn1ncc(Br)c1C(=O)Nc1ccc(F)cc1F,inactive: 9.03%,–
CC(NC(=O)/C=C/c1ccc(Br)cc1)c1ccc(Cl)cc1 (stereo not drawn),–,"inconclusive: 5.01 µM [activator, single point]"
O=C(CSc1nccn1-c1ncc(C(F)(F)F)cc1Cl)c1ccc(Br)cc1,inactive: -4.46%,–
c1ccc(-c2ccccc2OCCCCN2CCCCC2)cc1,–,"inconclusive: 8.91 µM [activator, partial curve, poor fit]"
Cc1noc(C)c1COc1ccc(C(=O)NCCc2ccc(S(N)(=O)=O)cc2)cc1,–,"inconclusive: 5.62 µM [activator, partial curve, poor fit]"
CC(C)(C)c1ccc(NC(=O)c2ccc(=O)[nH]n2)cc1,–,"inconclusive: 5.01 µM [activator, single point]"
CCOc1ccccc1-c1nc2c([nH]1)c(=O)n(C)c(=O)n2C,inactive: -2.74%,–
Cc1cc(C)nc(SC2c3cccc4cccc(c34)C2NS(=O)(=O)c2ccccc2)n1 (stereo not drawn),–,"inconclusive: 22.4 µM [activator, single point]"
CCCn1c(N)c(C(=O)CSc2nc3ccccc3c(=O)n2-c2ccc(OC)cc2)c(=O)[nH]c1=O,–,"inconclusive: 11.2 µM [activator, partial curve, poor fit]"

# Single entries from the list:
# Entry of CC(NC(=O)/C=C/c1ccc(Br)cc1)c1ccc(Cl)cc1 (stereo not drawn) under Potency: inconclusive: 5.01 µM [activator, single point]
# Entry of CC1CC(C)(C)N2C(=O)C3(Nc4ccccc4S3)c3cccc1c32 (stereo not drawn) under activation: inactive: -16.5%

# Carrying on:

Compound,activation,Potency
CCCN1C(=O)C(=O)c2cc(Cl)ccc21,inactive: -44.5%,–
COCCn1c(SCC(=O)Nc2ccc(NC(C)=O)cc2)nc2c([nH]c3ccccc32)c1=O,–,"inconclusive: 8.91 µM [activator, partial curve, poor fit]"
COc1ccc(N=Cc2c(O)n(-c3ccc(OC)cc3)c(=O)c3ccccc23)cc1,inactive: 1.14%,–
CCC1CCCCN1C(=O)c1ccc([N+](=O)[O-])o1 (stereo not drawn),inactive: -41.4%,–
O=c1[nH]c2nc(Cl)nc(Cl)c2[nH]1,–,"inconclusive: 3.98 µM [activator, single point]"
CCOCCCN(C)C1CCN(C(=O)c2oc3ccccc3c2NC(=O)COc2ccc(F)cc2)CC1,–,"inconclusive: 2.51 µM [activator, single point]"
Clc1ncnc2scc(-c3ccccc3)c12,inactive: -68.6%,–
CCOc1ccc(C(=O)NC(=S)Nc2ccc(NC(=O)c3ccco3)c(C)c2)cc1[N+](=O)[O-],–,"inconclusive: 2.82 µM [activator, single point]"
Cc1ccnc2nc(C(=O)OCC(=O)N3CCc4ccccc43)nn12,–,"inconclusive: 28.2 µM [activator, single point]"
Cn1cccc1/C=N/NC(=O)c1cc2ccccc2cc1O,inactive: 7.09%,–
CCc1nnc(NS(=O)(=O)c2ccc(NC(=O)/C=C/C(=O)O)cc2)s1,inactive: 17.8%,–
COc1ccc2c(c1)C(=O)[C@H](O)[C@@H](c1ccc(OC)c(Br)c1)O2,inactive: -34.9%,–
Oc1ccccc1-c1nnc(COc2ccccc2)o1,inactive: 7.88%,–
CC(=O)c1ccc(NS(=O)(=O)c2ccc(CC(C)C)cc2)cc1,inactive: 2.25%,–
CCCC(C)C(=O)Nc1nnc(CCc2ccccc2)s1 (stereo not drawn),–,"inconclusive: 20 µM [activator, partial curve, poor fit]"
Cc1cc(C)nc(SCC(=O)Nc2ccc(S(=O)(=O)Nc3cc(C)on3)cc2)n1,–,"inconclusive: 22.4 µM [activator, single point]"
Cc1ccc(NC(=O)CN(C)C(=O)COc2ccc(Br)cc2)cc1,inactive: -0.352%,–
CCn1c(=O)c2c(nc(SCC(=O)N3CCCC(C)C3)n2C)n(C)c1=O (stereo not drawn),–,"inconclusive: 3.55 µM [activator, single point]"
Cc1ccc(S(=O)(=O)N2CCN(Cc3nnc(-c4c(-c5ccccc5)noc4C)o3)CC2)cc1,–,"inconclusive: 5.01 µM [activator, single point]"
COc1ccc2c(c1)-c1nc(/N=C/c3ccc(O)cc3)sc1CC2,inactive: 4.76%,–
Cc1csc(SCC(=O)NC2CCS(=O)(=O)C2)n1 (stereo not drawn),inactive: 16.4%,–
O=C1Nc2cc(C(=O)N3CCN(c4ccccn4)CC3)ccc2S/C1=C\c1ccccc1,inactive: 27.9%,–
O=C(NCC(=O)N1CCN(C(=O)c2ccccc2)CC1)c1ccccc1,inactive: 14.7%,–
CN1CCN(c2ncc(CN3C(=O)c4ccccc4C3=O)s2)CC1,–,"inconclusive: 3.55 µM [activator, partial curve, poor fit]"
NC(=O)c1c(N)sc2c1CCCCC2,inactive: -19.4%,–

# Filtered by structure: the entries above with bromine
Compound,activation,Potency
CCn1ncc(Br)c1C(=O)Nc1ccc(F)cc1F,inactive: 9.03%,–
CC(NC(=O)/C=C/c1ccc(Br)cc1)c1ccc(Cl)cc1 (stereo not drawn),–,"inconclusive: 5.01 µM [activator, single point]"
O=C(CSc1nccn1-c1ncc(C(F)(F)F)cc1Cl)c1ccc(Br)cc1,inactive: -4.46%,–
COc1ccc2c(c1)C(=O)[C@H](O)[C@@H](c1ccc(OC)c(Br)c1)O2,inactive: -34.9%,–
Cc1ccc(NC(=O)CN(C)C(=O)COc2ccc(Br)cc2)cc1,inactive: -0.352%,–

# Later entries:

Compound,activation,Potency
N/C(COc1ccccc1)=N\NC(=O)c1cccnc1Oc1ccccc1,inactive: -19.5%,–
CCS(=O)(=O)N1CCC(C(=O)Nc2ccc3c(c2)CCC3)CC1,–,"inconclusive: 0.501 µM [activator, full curve, poor fit]"
CN(C)c1ccc(/C=C/C#N)cc1,–,"inconclusive: 28.2 µM [activator, single point]"
O=C(COC(=O)C1CC(=O)N(Cc2ccccc2)C1)c1ccc(Br)cc1 (stereo not drawn),–,"inconclusive: 2 µM [activator, full curve, poor fit]"
CCn1cc([N+](=O)[O-])c(C(=O)N2CCCc3ccccc32)n1,–,"inconclusive: 0.891 µM [activator, single point]"
CC(=O)c1c(C)[nH]c(C(=O)N2CCc3ccccc3C2)c1C,–,"inconclusive: 20 µM [activator, single point]"
Cc1onc(-c2c(F)cccc2Cl)c1C(=O)O/N=C(\N)c1ccc([N+](=O)[O-])o1,inactive: -49%,–
Cc1nnc(NC(=O)C(C)Oc2ccc3c(C)cc(=O)oc3c2)s1 (stereo not drawn),–,"inconclusive: 14.1 µM [activator, single point]"
CC[n+]1c(C=C2C=C(C)OC(C)=C2)sc2ccccc21,inconclusive: -72.8% [activator],–
Cc1ccc(CSc2nnc(C)c(=O)[nH]2)cc1,–,"inconclusive: 14.1 µM [activator, single point]"
CCN(C(=O)COc1ccc(C(C)=O)cc1)c1cccc2ccccc12,inactive: -12.6%,–
Cc1cc(C)c2sc(N(CCCN(C)C)C(=O)c3ccc(S(=O)(=O)N4CCCc5ccccc54)cc3)nc2c1,–,"inconclusive: 28.2 µM [activator, single point]"
Cn1c(CNc2cccc(Cl)c2)nnc1SCC#N,–,"inconclusive: 2 µM [activator, partial curve, poor fit]"
O=C(Nc1nc2ccccc2s1)c1ccc(Cl)s1,inactive: 14.7%,–
O=C(CN1CCN(CC(=O)Nc2ccccc2Cc2ccccc2)CC1)Nc1ccccc1Cl,–,"inconclusive: 4.47 µM [activator, full curve, poor fit]"
O=C(c1cc(-c2ccc(F)cc2)nc2ccccc12)N1CCN(C2CCS(=O)(=O)C2)CC1 (stereo not drawn),–,"inconclusive: 4.47 µM [activator, single point]"
COc1cc(C(=O)NNC(=S)NC(=O)c2ccc(F)cc2)cc(OC)c1OC,–,"inconclusive: 5.01 µM [activator, single point]"
CC1CCC(NC(=O)CN2C(=O)NC3(CCCCCC3)C2=O)CC1 (stereo not drawn),–,"inconclusive: 28.2 µM [activator, single point]"
N#Cc1ccc(/C=C(\C(=O)C(=O)O)c2ccc3ccccc3n2)cc1,–,"inconclusive: 10 µM [activator, single point]"
CC(NC(=O)COC(=O)CCc1ccccc1)c1ccccc1 (stereo not drawn),–,"inconclusive: 1.78 µM [activator, full curve]"
CCOc1cc(NC(=O)C2CC2)c(OCC)cc1NC(=O)c1cccc(F)c1,inactive: 7.55%,–
N#Cc1ccc(C(=O)Nc2cccc3ccccc23)c(F)c1,–,"inconclusive: 5.01 µM [activator, single point]"
O=S(=O)(NCC(c1ccco1)N1CCc2ccccc2C1)c1ccc(Br)cc1 (stereo not drawn),–,"inconclusive: 28.2 µM [activator, single point]"
